This experiment addresses T1, human Copper Transporter-1 (hCTR1) (human) (UniProt O15431).
T1 sequence: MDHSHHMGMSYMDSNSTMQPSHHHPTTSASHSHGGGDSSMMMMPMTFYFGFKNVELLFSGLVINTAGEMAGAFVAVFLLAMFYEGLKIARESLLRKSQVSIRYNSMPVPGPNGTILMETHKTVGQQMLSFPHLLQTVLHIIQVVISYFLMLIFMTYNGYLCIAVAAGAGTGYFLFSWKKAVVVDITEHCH
Briefly: co-IP.

The chains behind the UniProt entries cited, without tags or fusion partners.
UniProt Q00610: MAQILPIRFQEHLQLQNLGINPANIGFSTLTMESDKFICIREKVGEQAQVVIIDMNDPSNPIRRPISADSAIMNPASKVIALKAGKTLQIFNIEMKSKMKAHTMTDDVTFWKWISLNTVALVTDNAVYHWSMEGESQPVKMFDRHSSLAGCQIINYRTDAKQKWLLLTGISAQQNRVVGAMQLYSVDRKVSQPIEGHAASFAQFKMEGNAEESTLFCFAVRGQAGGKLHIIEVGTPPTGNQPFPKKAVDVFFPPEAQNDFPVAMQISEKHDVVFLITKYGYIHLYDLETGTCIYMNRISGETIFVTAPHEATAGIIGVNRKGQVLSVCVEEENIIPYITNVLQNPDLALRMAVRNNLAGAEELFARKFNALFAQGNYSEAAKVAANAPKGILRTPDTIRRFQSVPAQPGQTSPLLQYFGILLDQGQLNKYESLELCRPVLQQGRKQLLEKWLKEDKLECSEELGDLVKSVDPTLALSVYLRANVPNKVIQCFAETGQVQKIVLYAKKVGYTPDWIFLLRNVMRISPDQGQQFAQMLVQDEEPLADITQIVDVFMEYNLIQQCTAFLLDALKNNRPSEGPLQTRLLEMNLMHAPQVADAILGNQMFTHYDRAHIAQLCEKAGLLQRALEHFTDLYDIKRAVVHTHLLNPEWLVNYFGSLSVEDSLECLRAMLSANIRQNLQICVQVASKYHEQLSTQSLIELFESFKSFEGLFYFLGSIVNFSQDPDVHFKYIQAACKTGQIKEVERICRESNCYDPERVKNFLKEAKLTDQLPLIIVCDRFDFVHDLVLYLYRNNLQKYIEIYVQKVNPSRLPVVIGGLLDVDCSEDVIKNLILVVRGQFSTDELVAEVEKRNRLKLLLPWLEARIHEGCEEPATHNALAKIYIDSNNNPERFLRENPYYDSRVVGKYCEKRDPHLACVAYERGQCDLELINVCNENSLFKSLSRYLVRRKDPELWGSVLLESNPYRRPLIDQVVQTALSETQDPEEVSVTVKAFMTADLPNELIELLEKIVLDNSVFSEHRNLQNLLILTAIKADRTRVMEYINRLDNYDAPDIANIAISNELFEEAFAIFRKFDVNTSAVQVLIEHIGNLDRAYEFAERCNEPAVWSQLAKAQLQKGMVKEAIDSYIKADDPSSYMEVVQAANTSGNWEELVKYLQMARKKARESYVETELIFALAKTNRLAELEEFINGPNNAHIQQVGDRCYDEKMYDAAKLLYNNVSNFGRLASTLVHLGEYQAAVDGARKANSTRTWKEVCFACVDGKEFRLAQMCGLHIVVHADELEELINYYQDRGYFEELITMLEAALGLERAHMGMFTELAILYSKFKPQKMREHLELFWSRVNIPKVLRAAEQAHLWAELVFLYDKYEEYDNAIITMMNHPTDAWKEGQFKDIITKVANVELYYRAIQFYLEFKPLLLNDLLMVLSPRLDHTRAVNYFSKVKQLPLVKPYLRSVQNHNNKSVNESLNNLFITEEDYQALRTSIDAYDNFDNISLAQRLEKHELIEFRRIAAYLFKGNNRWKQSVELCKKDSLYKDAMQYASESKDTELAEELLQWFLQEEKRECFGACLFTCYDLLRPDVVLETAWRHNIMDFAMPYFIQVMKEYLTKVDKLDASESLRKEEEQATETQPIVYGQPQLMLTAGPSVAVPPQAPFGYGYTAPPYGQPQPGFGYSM

Results are given in words; binding and its absence hold for the method and conditions named. In cells and extracts the contact can be indirect. Some binding calls cover weakened binding; strength is not graded here.

For the substance “Clathrin Heavy Chain (from UniProt Q00610 1-1675)”, the binding entry was “binds”.

(Values after paper doi:10.1101/2025.03.28.645880.)
